Key:
Malonaldehyde (MDA) = settings: 5 mg/kg, compared to scopolamine-treated group
in vitro = settings: pig, PAMPA, pH 7.4

COc1cc2c(cc1OC)C(=O)C(CC1CCN(Cc3ccccc3)CC1)C2 (centres unmarked) [Donepezil, reference compound]
MDA level in brain homogenate (Malonaldehyde (MDA)): negligible MDA levels
Papp at 18 h (in vitro): 6.8 ± 0.061 ×10⁻⁶ cm/s

Source: publication PMC11044217 (ACS Omega, 2024)
